The values below come from publication PMC11329928, “Design, synthesis and structure-activity relationship (SAR) studies of an unusual class of non-cationic fatty amine-tripeptide conjugates as novel synthetic antimicrobial agents” (Frontiers in Pharmacology, 2024).

For data set [1], the system named is human erythrocytes (hRBCs). It counts as cell-based. The note with it: selective index.
Data set [2] relates to A549, IMR-90 and HeLa cells. The note with it: selective index.

“Ala - Pro -Glu-NH-C18H37 · HCl [DICAM 23]”: the “SI Spn HC50/SC” value in data set [1] (HC50 over SC for S. pneumoniae D39) worked out at 2. For the same substance, in data set [1] (HC50 over SC for S. pyogenes T), the “SI Spy HC50/SC” value was 0.6. Further, in data set [2] (mean of the three IC50 values over SC for S. pneumoniae D39), the “SI Spn IC50av/SC” value is given as 16.7. Further, in data set [2] (mean of the three IC50 values over SC for S. pyogenes T), the “SI Spy IC50av/SC” value is 5.
